This note sets out measurements from paper PMC12382147.

This test concerns the target T1, Flag-TPIT (UniProt O60806).
T1 sequence: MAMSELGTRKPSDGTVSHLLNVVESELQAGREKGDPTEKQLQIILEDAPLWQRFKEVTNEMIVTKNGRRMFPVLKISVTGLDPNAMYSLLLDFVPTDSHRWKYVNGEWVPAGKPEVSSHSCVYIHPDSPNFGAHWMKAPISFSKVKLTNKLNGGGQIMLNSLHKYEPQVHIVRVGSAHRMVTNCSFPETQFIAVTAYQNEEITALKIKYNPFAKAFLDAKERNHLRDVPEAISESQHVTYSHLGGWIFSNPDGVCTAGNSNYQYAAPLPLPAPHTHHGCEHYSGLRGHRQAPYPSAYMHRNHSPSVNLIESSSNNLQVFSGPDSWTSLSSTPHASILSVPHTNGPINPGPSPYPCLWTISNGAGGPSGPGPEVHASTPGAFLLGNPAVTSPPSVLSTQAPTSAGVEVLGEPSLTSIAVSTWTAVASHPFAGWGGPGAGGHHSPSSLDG
The test is described as follows: co-IP; exogenous ('external') Co-IP of Flag-TPIT with candidate ubiquitin ligases, Myc-tagged STUB1 or its truncated mutants; Triton X-100 lysis buffer, rProtein A/G beads, immunoblot; also with Irbesartan, Bosentan or Lumiracoxib (interaction enhanced).

No constants are given. Whether binding was seen depends on the method and setting. In cells and extracts the contact can be indirect. Sequences can lack the tags named with a protein.

In the case of “Myc-tagged STUB1 lacking the TPR domain (domain or fragment)”, the binding result was “no binding”.
